Measurements from patent publication US6995178B2, “Insecticidal anthranilamides” (E. I. du Pont de Nemours and Company, priority 2000, dated 2006).
Some results were stated once for a whole list of compounds, not compound by compound. Some ranges recur; such a range may be that of the whole group of compounds.

Test system: Diamondback Moth (DBM)—Plutella Xylostella
Experiment: Diamondback Moth (DBM) plant feeding damage test on radish plants
Format: in vivo
Conditions: sprayed at 250 ppm, 1 mL per test unit, 12-14 day old radish plant pre-infested with 10-15 neonate larvae, held 6 days at 25° C. and 70% relative humidity, replicated three times

Cc1cccc(C(=O)NC(C)C)c1NC(=O)c1cc(-c2ccccc2)nn1-c1ccccc1Cl [Compound D111]
Plant feeding damage visually assessed on a scale of 0-10 (excellent levels of plant protection: ratings of 0-1, 10% or less feeding damage): 0-1

CC(C)NC(=O)c1cccc(Cl)c1NC(=O)c1ccc(OC(F)(F)F)cc1 [Compound 19]
Plant feeding damage visually assessed on a scale of 0-10 (excellent levels of plant protection: ratings of 0-1, 10% or less feeding damage): 0-1

Cc1ccc(C(=O)Nc2c(C)cccc2C(=O)NC(C)C)c(Cl)n1 [Compound B39]
Plant feeding damage visually assessed on a scale of 0-10 (excellent levels of plant protection: ratings of 0-1, 10% or less feeding damage): 0-1

Cc1cc(C(F)(F)F)ccc1C(=O)Nc1cccc(Cl)c1C(=O)NC(C)(C)C [Compound 162]
Plant feeding damage visually assessed on a scale of 0-10 (excellent levels of plant protection: ratings of 0-1, 10% or less feeding damage): 0-1

Cc1cccc(C(=O)NC(C)C)c1NC(=O)c1cc(C(F)(F)F)nn1Cc1ccccc1 [Compound D89]
Plant feeding damage visually assessed on a scale of 0-10 (excellent levels of plant protection: ratings of 0-1, 10% or less feeding damage): 0-1

Cc1cccc(C(=O)NC(C)C)c1NC(=O)c1ccc(C(F)(F)F)cc1-n1cncn1 [Compound 218]
Plant feeding damage visually assessed on a scale of 0-10 (excellent levels of plant protection: ratings of 0-1, 10% or less feeding damage): 0-1

CSCC(C)NC(=O)c1cccc(C)c1NC(=O)c1ccc(C(F)(F)F)nc1C (stereo not shown) [Compound B24]
Plant feeding damage visually assessed on a scale of 0-10 (excellent levels of plant protection: ratings of 0-1, 10% or less feeding damage): 0-1

Cc1cc(C(=O)Nc2ccccc2C(=O)NC(C)C)n(-c2ccccc2)n1 [Compound D16]
Plant feeding damage visually assessed on a scale of 0-10 (excellent levels of plant protection: ratings of 0-1, 10% or less feeding damage): 0-1

Cc1cccc(C(=O)NC(C)C)c1NC(=O)c1cnc(C2CC2)nc1C [Compound C10]
Plant feeding damage visually assessed on a scale of 0-10 (excellent levels of plant protection: ratings of 0-1, 10% or less feeding damage): 0-1

Cc1cc(-c2cc(C(F)(F)F)ccc2C(=O)Nc2c(C)cccc2C(=O)NC(C)C)on1 [Compound 246]
Plant feeding damage visually assessed on a scale of 0-10 (excellent levels of plant protection: ratings of 0-1, 10% or less feeding damage): 0-1

Cc1cccc(C(=O)NC(C)(C)C)c1NC(=O)c1ccc(C(F)(F)F)cc1 [Compound 76]
Plant feeding damage visually assessed on a scale of 0-10 (excellent levels of plant protection: ratings of 0-1, 10% or less feeding damage): 0-1

Cc1cc(OC(F)(F)F)ccc1C(=O)Nc1c(I)cccc1C(=O)NC(C)C [Compound 208]
Plant feeding damage visually assessed on a scale of 0-10 (excellent levels of plant protection: ratings of 0-1, 10% or less feeding damage): 0-1

COCC(C)NC(=O)c1cccc(C)c1NC(=O)c1cc(C(F)(F)F)nn1-c1ccccc1Cl (stereo not shown) [Compound D116]
Plant feeding damage visually assessed on a scale of 0-10 (excellent levels of plant protection: ratings of 0-1, 10% or less feeding damage): 0-1

COCC(C)NC(=O)c1cccc(Cl)c1NC(=O)c1ccc(OCC(F)(F)F)nc1 (stereo not shown) [Compound B9]
Plant feeding damage visually assessed on a scale of 0-10 (excellent levels of plant protection: ratings of 0-1, 10% or less feeding damage): 0-1

CCC(C)NC(=O)c1cccc(Cl)c1NC(=O)c1ccc(C(F)(F)F)cc1C (stereo not shown) [Compound 101]
Plant feeding damage visually assessed on a scale of 0-10 (excellent levels of plant protection: ratings of 0-1, 10% or less feeding damage): 0-1

CC(C)NC(=O)c1ccccc1N(C)C(=O)c1ccc(C(F)(F)F)cc1 [Compound 92]
Plant feeding damage visually assessed on a scale of 0-10 (excellent levels of plant protection: ratings of 0-1, 10% or less feeding damage): 0-1

COCC(C)NC(=O)c1c(Cl)cccc1NC(=O)c1ccc(C(F)(F)F)cc1C (stereo not shown) [Compound 163]
Plant feeding damage visually assessed on a scale of 0-10 (excellent levels of plant protection: ratings of 0-1, 10% or less feeding damage): 0-1

Cc1cc(C(F)(F)F)ccc1C(=O)Nc1c(C)cccc1C(=O)NC(C)C [Compound 52]
Plant feeding damage visually assessed on a scale of 0-10 (excellent levels of plant protection: ratings of 0-1, 10% or less feeding damage): 0-1

Cc1cc(OC(F)(F)F)ccc1C(=O)Nc1c(C)cccc1C(=O)NC(C)C [Compound 75]
Plant feeding damage visually assessed on a scale of 0-10 (excellent levels of plant protection: ratings of 0-1, 10% or less feeding damage): 0-1

Cc1cccc(C(=O)NC(C)C)c1NC(=O)c1sc(OCC(F)(F)C(F)(F)F)nc1C [Compound G2]
Plant feeding damage visually assessed on a scale of 0-10 (excellent levels of plant protection: ratings of 0-1, 10% or less feeding damage): 0-1

CCn1nc(C(F)(F)F)cc1C(=O)Nc1c(C)cccc1C(=O)NC(C)(C)C [Compound D4]
Plant feeding damage visually assessed on a scale of 0-10 (excellent levels of plant protection: ratings of 0-1, 10% or less feeding damage): 0-1

Cc1cccc(C(=S)NC(C)C)c1NC(=O)c1ccc(C(F)(F)C(F)(F)F)nc1C [Compound B76]
Plant feeding damage visually assessed on a scale of 0-10 (excellent levels of plant protection: ratings of 0-1, 10% or less feeding damage): 0-1

COc1cc(C(F)(F)F)ccc1C(=O)Nc1c(C)cccc1C(=O)NC(C)C [Compound 252]
Plant feeding damage visually assessed on a scale of 0-10 (excellent levels of plant protection: ratings of 0-1, 10% or less feeding damage): 0-1

CCNC(=O)c1cccc(C)c1NC(=O)c1ccc(C(F)(F)F)cc1C [Compound 152]
Plant feeding damage visually assessed on a scale of 0-10 (excellent levels of plant protection: ratings of 0-1, 10% or less feeding damage): 0-1

CC(C)NC(=O)c1c(F)cccc1NC(=O)c1ccc(C(F)(F)F)cc1 [Compound 185]
Plant feeding damage visually assessed on a scale of 0-10 (excellent levels of plant protection: ratings of 0-1, 10% or less feeding damage): 0-1

Cc1cccc(C(=O)NC(C)(C)C)c1NC(=O)c1cn(C(F)F)cc1-c1ccccc1 [Compound M3]
Plant feeding damage visually assessed on a scale of 0-10 (excellent levels of plant protection: ratings of 0-1, 10% or less feeding damage): 0-1

COCC(C)NC(=O)c1cccc(C(F)(F)F)c1NC(=O)c1cc(C(F)(F)F)nn1-c1ccccc1 (stereo not shown) [Compound D69]
Plant feeding damage visually assessed on a scale of 0-10 (excellent levels of plant protection: ratings of 0-1, 10% or less feeding damage): 0-1

Cc1cc(C)c(NC(=O)c2ccc(OC(F)(F)F)cc2)c(C(=O)NC(C)C)c1 [Compound 37]
Plant feeding damage visually assessed on a scale of 0-10 (excellent levels of plant protection: ratings of 0-1, 10% or less feeding damage): 0-1

Cc1cnn(-c2cc(C(F)(F)F)ccc2C(=O)Nc2c(C)cccc2C(=O)NC(C)C)c1 [Compound 256]
Plant feeding damage visually assessed on a scale of 0-10 (excellent levels of plant protection: ratings of 0-1, 10% or less feeding damage): 0-1

CCc1nc(C(F)(F)F)ncc1C(=O)Nc1c(C)cccc1C(=O)NC(C)C [Compound C5]
Plant feeding damage visually assessed on a scale of 0-10 (excellent levels of plant protection: ratings of 0-1, 10% or less feeding damage): 0-1

CCC(C)NC(=O)c1cccc(C)c1NC(=O)c1ccc(C(F)(F)F)nc1C (stereo not shown) [Compound B12]
Plant feeding damage visually assessed on a scale of 0-10 (excellent levels of plant protection: ratings of 0-1, 10% or less feeding damage): 0-1

C#CCNC(=O)c1cccc(C)c1NC(=O)c1cc(C(F)(F)F)nn1-c1ccccc1Cl [Compound D123]
Plant feeding damage visually assessed on a scale of 0-10 (excellent levels of plant protection: ratings of 0-1, 10% or less feeding damage): 0-1

Cc1cccc(C(=O)NC(C)C)c1NC(=O)c1ccc2c(c1)OC(F)(F)O2 [Compound 165]
Plant feeding damage visually assessed on a scale of 0-10 (excellent levels of plant protection: ratings of 0-1, 10% or less feeding damage): 0-1

CC(C)(C)NC(=O)c1cccc(Cl)c1NC(=O)c1ccc(OCC(F)(F)F)nc1 [Compound B8]
Plant feeding damage visually assessed on a scale of 0-10 (excellent levels of plant protection: ratings of 0-1, 10% or less feeding damage): 0-1

Cc1cccnc1-n1nc(C(F)(F)F)cc1C(=O)Nc1cccc(Cl)c1C(=O)NC(C)C [Compound D61]
Plant feeding damage visually assessed on a scale of 0-10 (excellent levels of plant protection: ratings of 0-1, 10% or less feeding damage): 0-1

Cc1cc(C(F)(F)F)ccc1C(=O)Nc1c(C)cccc1C(=S)NC(C)C [Compound 275]
Plant feeding damage visually assessed on a scale of 0-10 (excellent levels of plant protection: ratings of 0-1, 10% or less feeding damage): 0-1

Cc1cc(C(F)(F)F)ccc1C(=O)Nc1cccc(F)c1C(=O)NC(C)C [Compound 189]
Plant feeding damage visually assessed on a scale of 0-10 (excellent levels of plant protection: ratings of 0-1, 10% or less feeding damage): 0-1

CC(C)(C)NC(=O)c1cccc(C(F)(F)F)c1NC(=O)c1cc(C(F)(F)F)nn1-c1ccccc1 [Compound D66]
Plant feeding damage visually assessed on a scale of 0-10 (excellent levels of plant protection: ratings of 0-1, 10% or less feeding damage): 0-1

Cc1cccnc1-n1nc(C(F)(F)F)cc1C(=O)Nc1c(C)cccc1C(=O)NC(C)C [Compound D39]
Plant feeding damage visually assessed on a scale of 0-10 (excellent levels of plant protection: ratings of 0-1, 10% or less feeding damage): 0-1

CC(C)NC(=O)c1cccc(Cl)c1NC(=O)c1ccc(Br)cc1C(=O)N(C)C [Compound 215]
Plant feeding damage visually assessed on a scale of 0-10 (excellent levels of plant protection: ratings of 0-1, 10% or less feeding damage): 0-1

Cc1cccc(C(=O)NC(C)C)c1NC(=O)c1ccc(C(F)(F)C(F)(F)F)nc1C [Compound B17]
Plant feeding damage visually assessed on a scale of 0-10 (excellent levels of plant protection: ratings of 0-1, 10% or less feeding damage): 0-1

COc1cccc(C(=O)NC(C)C)c1NC(=O)c1cc(C(F)(F)F)nn1-c1ccccc1 [Compound D60]
Plant feeding damage visually assessed on a scale of 0-10 (excellent levels of plant protection: ratings of 0-1, 10% or less feeding damage): 0-1

CCCc1nc(Cl)ccc1C(=O)Nc1c(C)cccc1C(=O)NC(C)C [Compound B69]
Plant feeding damage visually assessed on a scale of 0-10 (excellent levels of plant protection: ratings of 0-1, 10% or less feeding damage): 0-1

Cc1cccc(C(=O)NC(C)C)c1NC(=O)c1ccc(S(C)(=O)=O)cc1 [Compound 171]
Plant feeding damage visually assessed on a scale of 0-10 (excellent levels of plant protection: ratings of 0-1, 10% or less feeding damage): 0-1

CCCNC(=O)c1cccc(C)c1NC(=O)c1cc(C(F)(F)F)nn1-c1ccccc1Cl [Compound D119]
Plant feeding damage visually assessed on a scale of 0-10 (excellent levels of plant protection: ratings of 0-1, 10% or less feeding damage): 0-1

Cc1cccc(C(=O)NC(C)C)c1NC(=O)c1cc(C(F)(F)F)nn1-c1ncccc1C(F)(F)F [Compound D79]
Plant feeding damage visually assessed on a scale of 0-10 (excellent levels of plant protection: ratings of 0-1, 10% or less feeding damage): 0-1

COCC(C)NC(=O)c1cccc(C)c1NC(=O)c1ccc(C(F)(F)F)nc1C (stereo not shown) [Compound B11]
Plant feeding damage visually assessed on a scale of 0-10 (excellent levels of plant protection: ratings of 0-1, 10% or less feeding damage): 0-1

CCc1nc(Cl)ccc1C(=O)Nc1c(C)cccc1C(=O)NC(C)C [Compound B70]
Plant feeding damage visually assessed on a scale of 0-10 (excellent levels of plant protection: ratings of 0-1, 10% or less feeding damage): 0-1

CC(C)NC(=O)c1cccc(Cl)c1NC(=O)c1ccc(C(F)(F)F)cc1-n1cncn1 [Compound 233]
Plant feeding damage visually assessed on a scale of 0-10 (excellent levels of plant protection: ratings of 0-1, 10% or less feeding damage): 0-1

CC(C)(C)NC(=O)c1cccc(Cl)c1NC(=O)c1ccc(C(F)(F)F)cc1 [Compound 169]
Plant feeding damage visually assessed on a scale of 0-10 (excellent levels of plant protection: ratings of 0-1, 10% or less feeding damage): 0-1

Cc1cccc(C(=O)NC(C)C)c1NC(=O)c1ccc(CC(C)C)nc1Cl [Compound B58]
Plant feeding damage visually assessed on a scale of 0-10 (excellent levels of plant protection: ratings of 0-1, 10% or less feeding damage): 0-1

Cc1cccc(C(=O)NC(C)C)c1NC(=O)c1cc(C(F)(F)F)nn1-c1ccccc1F [Compound D46]
Plant feeding damage visually assessed on a scale of 0-10 (excellent levels of plant protection: ratings of 0-1, 10% or less feeding damage): 0-1

Cc1cccc(C(=O)NC(C)C)c1NC(=O)c1ccc(C2CC2)nc1C.Cl [Compound B45]
Plant feeding damage visually assessed on a scale of 0-10 (excellent levels of plant protection: ratings of 0-1, 10% or less feeding damage): 0-1

Cc1cccc(C(=O)NC(C)(C)C)c1NC(=O)c1ccc([N+](=O)[O-])cc1 [Compound 80]
Plant feeding damage visually assessed on a scale of 0-10 (excellent levels of plant protection: ratings of 0-1, 10% or less feeding damage): 0-1

O=C(NC1CC1)c1cccc(Cl)c1NC(=O)c1cc(C(F)(F)F)nn1-c1ccccc1 [Compound D64]
Plant feeding damage visually assessed on a scale of 0-10 (excellent levels of plant protection: ratings of 0-1, 10% or less feeding damage): 0-1
